These are yes or no findings as the source states them, for the method shown. Some binding calls cover weakened binding; strength is not graded here. Where a sequence is shown, tags or fusion partners need not be part of it.
T1: TR4 (NR2C2), two-hybrid fusion (UniProt P49117)
T1 sequence: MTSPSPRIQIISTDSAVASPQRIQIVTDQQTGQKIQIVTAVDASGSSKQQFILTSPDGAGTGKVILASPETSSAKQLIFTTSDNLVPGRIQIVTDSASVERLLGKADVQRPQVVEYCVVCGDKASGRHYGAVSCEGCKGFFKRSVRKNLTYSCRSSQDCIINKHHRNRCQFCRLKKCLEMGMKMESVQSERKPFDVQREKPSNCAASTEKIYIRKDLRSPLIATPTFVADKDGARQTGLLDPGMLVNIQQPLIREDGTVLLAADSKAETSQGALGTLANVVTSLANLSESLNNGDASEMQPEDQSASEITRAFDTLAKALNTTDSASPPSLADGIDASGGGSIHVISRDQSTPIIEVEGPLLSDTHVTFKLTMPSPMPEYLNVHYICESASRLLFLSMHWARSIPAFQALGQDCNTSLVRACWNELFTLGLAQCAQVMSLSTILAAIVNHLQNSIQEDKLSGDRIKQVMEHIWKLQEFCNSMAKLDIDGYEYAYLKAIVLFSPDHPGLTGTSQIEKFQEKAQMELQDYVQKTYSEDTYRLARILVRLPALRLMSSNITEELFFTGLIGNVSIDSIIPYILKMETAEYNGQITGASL

Protein sequences, listed by entry. Tags and fused reporters are not part of them. Residues count along the entry.
UniProt P13864, 2-757: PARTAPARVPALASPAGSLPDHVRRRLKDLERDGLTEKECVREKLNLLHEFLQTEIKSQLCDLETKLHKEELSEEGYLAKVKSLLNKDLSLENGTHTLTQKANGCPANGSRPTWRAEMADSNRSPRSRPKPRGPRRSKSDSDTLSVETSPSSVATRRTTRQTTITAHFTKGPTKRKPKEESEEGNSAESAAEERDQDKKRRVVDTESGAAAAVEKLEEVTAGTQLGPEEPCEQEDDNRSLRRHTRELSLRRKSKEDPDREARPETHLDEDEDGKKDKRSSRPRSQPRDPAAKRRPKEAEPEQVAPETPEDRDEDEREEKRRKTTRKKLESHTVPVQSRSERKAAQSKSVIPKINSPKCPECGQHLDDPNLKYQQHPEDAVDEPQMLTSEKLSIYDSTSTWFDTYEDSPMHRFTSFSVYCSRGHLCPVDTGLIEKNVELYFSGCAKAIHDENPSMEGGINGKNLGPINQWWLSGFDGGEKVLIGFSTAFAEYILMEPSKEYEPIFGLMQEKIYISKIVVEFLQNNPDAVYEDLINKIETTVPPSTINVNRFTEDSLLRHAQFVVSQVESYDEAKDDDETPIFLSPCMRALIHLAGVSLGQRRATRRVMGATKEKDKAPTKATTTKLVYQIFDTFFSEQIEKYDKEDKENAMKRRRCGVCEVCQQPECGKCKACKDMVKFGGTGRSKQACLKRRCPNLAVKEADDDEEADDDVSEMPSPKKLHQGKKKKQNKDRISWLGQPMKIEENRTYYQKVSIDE
UniProt Q6PDQ2, 667-1295: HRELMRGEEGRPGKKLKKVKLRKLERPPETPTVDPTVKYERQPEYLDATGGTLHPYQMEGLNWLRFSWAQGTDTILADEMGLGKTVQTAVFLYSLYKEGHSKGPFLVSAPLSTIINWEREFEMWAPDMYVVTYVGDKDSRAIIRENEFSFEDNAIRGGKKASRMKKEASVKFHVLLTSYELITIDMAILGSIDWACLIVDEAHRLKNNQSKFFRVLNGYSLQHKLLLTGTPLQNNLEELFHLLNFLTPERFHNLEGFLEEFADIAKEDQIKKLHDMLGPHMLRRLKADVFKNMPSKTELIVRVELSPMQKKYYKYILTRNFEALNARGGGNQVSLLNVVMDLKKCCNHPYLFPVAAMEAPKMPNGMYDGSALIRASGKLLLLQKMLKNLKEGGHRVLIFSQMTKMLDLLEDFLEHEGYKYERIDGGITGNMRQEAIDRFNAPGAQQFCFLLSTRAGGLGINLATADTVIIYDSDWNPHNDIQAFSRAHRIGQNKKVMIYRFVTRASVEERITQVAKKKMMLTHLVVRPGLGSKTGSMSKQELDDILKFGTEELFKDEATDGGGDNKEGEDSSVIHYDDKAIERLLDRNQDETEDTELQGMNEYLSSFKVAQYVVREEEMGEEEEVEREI

T2: TR2 (NR2C1), two-hybrid fusion (UniProt Q505F1)
T2 sequence: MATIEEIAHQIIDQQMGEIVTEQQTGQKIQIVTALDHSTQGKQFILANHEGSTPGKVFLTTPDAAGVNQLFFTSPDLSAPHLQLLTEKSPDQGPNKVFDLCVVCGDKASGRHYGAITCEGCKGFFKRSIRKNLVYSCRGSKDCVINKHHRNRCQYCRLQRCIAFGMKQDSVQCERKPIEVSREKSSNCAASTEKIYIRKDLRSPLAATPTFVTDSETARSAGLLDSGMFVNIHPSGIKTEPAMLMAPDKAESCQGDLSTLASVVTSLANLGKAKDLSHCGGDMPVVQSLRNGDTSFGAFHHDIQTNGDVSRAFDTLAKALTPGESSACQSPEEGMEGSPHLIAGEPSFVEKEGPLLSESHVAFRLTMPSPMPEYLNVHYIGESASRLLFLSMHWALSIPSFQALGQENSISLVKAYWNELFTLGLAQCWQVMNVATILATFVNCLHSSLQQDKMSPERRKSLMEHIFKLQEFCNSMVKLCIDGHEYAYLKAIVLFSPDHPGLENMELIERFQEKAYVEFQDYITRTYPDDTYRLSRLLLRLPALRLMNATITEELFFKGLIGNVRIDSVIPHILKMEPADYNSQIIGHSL

T3: NCoR1 carboxy-terminal (C) domain (NCoR1-C) (mouse) (UniProt Q60974)
T3 sequence: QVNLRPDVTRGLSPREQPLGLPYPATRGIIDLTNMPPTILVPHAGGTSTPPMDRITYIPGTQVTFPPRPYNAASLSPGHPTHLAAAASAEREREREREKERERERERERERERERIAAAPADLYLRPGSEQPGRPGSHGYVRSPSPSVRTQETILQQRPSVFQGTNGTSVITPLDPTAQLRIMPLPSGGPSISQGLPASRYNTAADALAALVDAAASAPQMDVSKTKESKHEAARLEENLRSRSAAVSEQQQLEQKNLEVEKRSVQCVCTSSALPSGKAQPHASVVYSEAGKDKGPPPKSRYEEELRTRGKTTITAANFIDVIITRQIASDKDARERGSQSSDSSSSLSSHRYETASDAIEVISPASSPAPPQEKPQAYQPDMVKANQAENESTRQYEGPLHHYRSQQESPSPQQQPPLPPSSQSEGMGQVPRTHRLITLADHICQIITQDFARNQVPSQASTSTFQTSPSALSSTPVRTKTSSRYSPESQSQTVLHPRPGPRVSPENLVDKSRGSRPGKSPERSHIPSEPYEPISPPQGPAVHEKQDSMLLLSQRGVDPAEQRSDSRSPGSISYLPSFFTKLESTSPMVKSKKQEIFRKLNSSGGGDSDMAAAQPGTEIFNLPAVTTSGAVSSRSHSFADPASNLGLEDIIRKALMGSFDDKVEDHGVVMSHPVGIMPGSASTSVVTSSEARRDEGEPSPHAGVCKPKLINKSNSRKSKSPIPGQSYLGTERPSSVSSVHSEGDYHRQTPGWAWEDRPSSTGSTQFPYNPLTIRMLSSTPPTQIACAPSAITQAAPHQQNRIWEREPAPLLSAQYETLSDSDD


Tests used:
Assay in all cases: two-hybrid
[1] = biological target: T1, TR4 (NR2C2), two-hybrid fusion
[2] = biological target: T2, TR2 (NR2C1), two-hybrid fusion
[3] = biological target: T3, NCoR1 carboxy-terminal (C) domain (NCoR1-C) (mouse)

Molecule	binding [1]	binding [2]	binding [3]
CtBP1, two-hybrid fusion (from UniProt O88712 1-441)	no binding	no binding	binds
N-terminus of DNMT1, two-hybrid fusion (from UniProt P13864 2-757) (domain or fragment)	no binding	no binding	
Mi2β amino acids 667-1295, two-hybrid fusion (from UniProt Q6PDQ2 667-1295) (domain or fragment)	no binding	no binding	binds
Sin3A, two-hybrid fusion (protein, UniProt Q60520 1-1274) MKRRLDDQESPVYAAQQRRIPGSTEAFSHQHRVLAPAPPVYEAVSETMQSATGIQYSVAPNYQVSAVPQSSGSHGPAIAAVHSSHHHPTAVQPHGGQVVQSHAHPAPPVAPVQGQQQFQRLKVEDALSYLDQVKLQFGSQPQVYNDFLDIMKEFKSQSIDTPGVISRVSQLFKGHPDLIMGFNTFLPPGYKIEVQTNDMVNVTTPGQVHQIPTHGIQPQPQPPPQHPSQPSSQSAPTPAQPAPQPTAAKVSKPSQLQAHTPASQQTPPLPPYASPRSPPVQPHTPVTISLGTAPSLQNNQPVEFNHAINYVNKIKNRFQGQPDIYKAFLEILHTYQKEQRNAKEAGGNYTPALTEQEVYAQVARLFKNQEDLLSEFGQFLPDANSSVLLSKTTAEKVDSVRNDHGGTVKKPQLNNKPQRPSQNGCQIRRHSGTGATPPVKKKPKLMSLKESSMADASKHGVGTESLFFDKVRKALRSAEAYENFLRCLVIFNQEVISRAELVQLVSPFLGKFPELFNWFKNFLGYKESVHLESFPKERATEGIAMEIDYASCKRLGSSYRALPKSYQQPKCTGRTPLCKEVLNDTWVSFPSWSEDSTFVSSKKTQYEEHIYRCEDERFELDVVLETNLATIRVLEAIQKKLSRLSAEEQAKFRLDNTLGGTSEVIHRKALQRIYADKAADIIDGLRKNPSIAVPIVLKRLKMKEEEWREAQRGFNKVWREQNEKYYLKSLDHQGINFKQNDTKVLRSKSLLNEIESIYDERQEQATEENAGVPVGPHLSLAYEDKQILEDAAALIIHHVKRQTGIQKEDKYKIKQIMHHFIPDLLFAQRGDLSDVEEEEEEEMDVDEATGAPKKHNGVGGSPPKSKLLFSNTAAQKLRGMDEVYNLFYVNNNWYIFMRLHQILCLRLLRICSQAERQIEEENREREWEREVLGIKRDKSDSPAIQLRLKEPMDVDVEDYYPAFLDMVRSLLDGNIDSSQYEDSLREMFTIHAYIAFTMDKLIQSIVRQLQHIVSDEVCVQVTDLYLAENNNGATGGQLNSQTSRSLLESAYQRKAEQLMSDENCFKLMFIQSQGQVQLTVELLDTEEENSDDPVEAERWSDYVERYMSSDTTSPELREHLAQKPVFLPRNLRRIRKCQRGREQQEKEGKEGNSKKTMENVESLDKLECRFKLNSYKMVYVIKSEDYMYRRTALLRAHQSHERVSKRLHQRFQAWVDKWTKEHVPREMAAETSKWLMGEGLEGLVPCTTTCDTETLHFVSINKYRVKYGTVFKAP	binds	binds	binds
C-terminal domain of SMRT (silencing mediator of retinoic acid and thyroid hormone), two-hybrid fusion (domain or fragment, UniProt Q9WU42 2004-2468) SPDGVEPISPVSSPSLTHDKGLSKPLEELEKSHLEGELRHKQPGPMKLSAEAAHLPHLRPLPESQPSSSPLLQTAPGIKGHQRVVTLAQHISEVITQDYTRHHPQQLSGPLPAPLYSFPGASCPVLDLRRPPSDLYLPPPDHGTPARGSPHSEGGKRSPEPSKTSVLGSSEDAIEPVSPPEGMTEPGHARSTAYPLLYRDGEQGEPRMGSKSPGNTSQPPAFFSKLTESNSAMVKSKKQEINKKLNTHNRNEPEYNIGQPGTEIFNMPAITGAGLMTCRSQAVQEHASTNMGLEAIIRKALMGKYDQWEEPPPLGANAFNPLNASASLPAAAMPITTADGRSDHALTSPGGGGKAKVSGRPSSRKAKSPAPGLASGDRPPSVSSVHSEGDCNRRTPLTNRVWEDRPSSAGSTPFPYNPLIMRLQAGVMASPPPPGLAAGSGPLAGPHHAWDEEPKPLLCSQYETL	no binding	no binding	
